Results deposited as PubChem BioAssay AID652272 (Drosophila RNAi Screening Center, 2013)
In all, the deposit lists about 21,000 reagents; shown is a random part of those that have a named target and a result. In the full data, 503 (2.4%) were called active. 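Raw plate light values, not normalised; calls rest on replicate z-scores that were not deposited; hits include reporter decreases as well as increases.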 Entries without a mark were called inactive. Names joined by + are all predicted targets of the reagent. No sequences are given here. Not stated in the record: the amount of reagent, the time to read-out.

- Test: 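Genome-wide knock-down search for components of Hedgehog signalling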 (primary screen)
- Cell system: Drosophila clone 8 (Cl8) cells
- Knock-down reagent: long dsRNA against Drosophila genes
- Measurement: 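Firefly light from a Hedgehog-responsive ptc promoter reporter and Renilla reference light, both read on a plate reader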
- Direction: firefly Hh reporter signal: higher = more ptc reporter light; Renilla reference signal: higher = more Renilla control light
- Call rule: 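Hit when the z-score averaged over two replicates is under -2 or over +3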
- Calls: active = hit: reporter lowered or raised; inactive = not a hit

gene	DRSC id	firefly Hh reporter signal, replicate 1	firefly Hh reporter signal, replicate 2	firefly Hh reporter signal, replicate 3	Renilla reference signal, replicate 1	Renilla reference signal, replicate 2
lin-28	DRSC10261	59433	59979		1180	4609
KdelR (KDEL receptor)	DRSC03353	57859	56573		3139	2400
Graf (GTPase regulator associated with FAK)	DRSC20131	74288	61289		2011	1548
RluA-1 (RluA pseudouridine synthase 1)	DRSC02240	97616	50066		2179	4076
RluA-1 (RluA pseudouridine synthase 1)	DRSC03060	81772	69485		2041	4868
CG3246	DRSC00584	1.01e5	80883		2758	5617
Nnk (Nicknack)	DRSC15274	5.13e5	95104		30468	2588
asRNA:CR33945 (antisense RNA:CR33945)	DRSC14080	4.58e5	2.17e5		22284	4358
LysD + LysC (retired record)	DRSC08674	62325	53600		2336	4256
ACOX1 (acyl-CoA oxidase 1)	DRSC05941	1.11e5	82696		4925	3590
CG13627	DRSC14629	5.24e5	1.00e5		26013	2409
CG6497	DRSC10654	1.62e5			4547	3504
Pos (Poseidon)	DRSC15415	71381	1.85e5		2466	6765
CG15422	DRSC00436	1.43e5	69633		3691	6404
CG15412	DRSC00427	70662	30758		2128	3703
CG33235	DRSC19641	1.04e5	3.67e5		3474	13632
Drak (Death-associated protein kinase related)	DRSC19778	73701	2.02e5		3123	8625
CG3285	DRSC00589	88672	66449		4163	2795
CG14868	DRSC14991	4.84e5	77328		2266	2266
Pex11ab (Peroxin 11a/b)	DRSC07145	70938	55575		2161	4032
CG15760	DRSC19725	1.11e5	2.97e5		3360	11686
Ntmt (N-terminal methyltransferase)	DRSC06624	1.30e5	65900		3332	486
BCAS2	DRSC15693	94345	91664		2243	2604
CG8343	DRSC04905	1.44e5	62784		5840	3044
GstD1 (Glutathione S transferase D1)	DRSC16683	1.32e5	1.48e5		4505	3958
CG9962	DRSC00739	1.14e5	58842		2515	1367
CG34204	DRSC03897	1.07e5	1.69e5		2672	6828
stw (straw)	DRSC04842	71269	62208		1741	5132
stw (straw)	DRSC04843	86024	71078		2192	5611
side-V (sidestep V)	DRSC04188	1.49e5	4.87e5	72873	3842	3081
side-V (sidestep V)	DRSC04189	6.17e5	83672		3910	3910
Bet3 (Blocked early in transport 3)	DRSC10388	70493	41933	53504	5469	4753
CASK	DRSC14588	6.05e5	6.36e5	1.59e5	29461	4007
CASK	DRSC16597	6.41e5	1.85e5		29848	3908
CASK	DRSC16598	7.94e5	1.66e5		41527	3122
Spt-I (Serine palmitoyltransferase subunit I)	DRSC06860	1.18e5	56804		2688	5104
CG13097	DRSC02199	60018	84209		2720	3097
Usp20-33 (Ubiquitin specific protease 20/33)	DRSC07196	1.43e5	86304		5649	3798
CG3078	DRSC18531	92075	73936		3028	2789
Ugalt (UDP-galactose transporter)	DRSC18467	63270	2.75e5		2935	10727
Top2 (Topoisomerase 2)	DRSC03459	95563	43608		2390	3893
CG12219	DRSC17829	61264	2.47e5		2013	9184
Fancl	DRSC14550	1.16e5	1.08e5		2800	3251
GstE2 (Glutathione S transferase E2)	DRSC06672	94488	81840		2713	5851
zen2 (zerknullt-related)	DRSC12633	67947	83602		3396	2704
LBR (Lamin B receptor)	DRSC04298	1.27e5	1.20e5		4964	4246
hyd (hyperplastic discs)	DRSC16971	78592	1.32e5		1610	3741
CG7168	DRSC16208	1.24e5	98208		4778	4055
CG2321	DRSC15439	1.30e5	73963		3035	2075
lncRNA:CR43493 + l(1)G0196	DRSC20628	93136	94213		2512	2544
CR32733 (pseudo)	DRSC17481	4.33e5	1.43e5		24948	2613
nrv1 (nervana 1)	DRSC03382	75312	1.35e5		3507	4811
CG30089	DRSC06126	1.29e5	1.06e5		5915	4278
CG30089	DRSC06127	56007	11281		1221	97
CG30089	DRSC06267	1.71e5	52035		4016	1152
CG30089	DRSC06268	6.18e5	96144		4155	4155
TfIIB (Transcription factor IIB)	DRSC03454	84656	52544		2346	4116

A stretch taken from the entries so far:
gene	DRSC id	firefly Hh reporter signal, replicate 1	firefly Hh reporter signal, replicate 2	firefly Hh reporter signal, replicate 3	Renilla reference signal, replicate 1	Renilla reference signal, replicate 2
RluA-1 (RluA pseudouridine synthase 1)	DRSC02240	97616	50066		2179	4076
RluA-1 (RluA pseudouridine synthase 1)	DRSC03060	81772	69485		2041	4868
CG3246	DRSC00584	1.01e5	80883		2758	5617
Nnk (Nicknack)	DRSC15274	5.13e5	95104		30468	2588
asRNA:CR33945 (antisense RNA:CR33945)	DRSC14080	4.58e5	2.17e5		22284	4358
LysD + LysC (retired record)	DRSC08674	62325	53600		2336	4256
